Consider one sequence from PMC4924758.

Amino acid sequences for entries named in this document (tags omitted).
UniProt Q04206, whole entry: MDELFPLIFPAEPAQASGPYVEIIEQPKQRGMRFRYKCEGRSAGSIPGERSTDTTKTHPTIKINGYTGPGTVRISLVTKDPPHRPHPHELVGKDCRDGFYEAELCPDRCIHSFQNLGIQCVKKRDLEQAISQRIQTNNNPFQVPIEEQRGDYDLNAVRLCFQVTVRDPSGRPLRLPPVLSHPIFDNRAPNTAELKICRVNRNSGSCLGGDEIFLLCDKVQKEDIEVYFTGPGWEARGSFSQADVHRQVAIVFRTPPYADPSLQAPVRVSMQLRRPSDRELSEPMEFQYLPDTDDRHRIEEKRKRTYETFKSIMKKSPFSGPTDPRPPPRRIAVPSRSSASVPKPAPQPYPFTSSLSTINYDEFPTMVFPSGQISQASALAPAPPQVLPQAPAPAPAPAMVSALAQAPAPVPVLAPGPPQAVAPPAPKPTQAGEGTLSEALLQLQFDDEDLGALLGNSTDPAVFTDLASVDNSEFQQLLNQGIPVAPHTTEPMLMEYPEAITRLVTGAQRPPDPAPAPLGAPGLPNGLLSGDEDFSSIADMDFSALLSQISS

The exact form of at least one protein or probe is not confirmed. Weaker means in comparison with the reference protein, sequence or condition of that experiment.

The series has as its target NFκB p65 (recombinant, Active Motif 31102) (UniProt Q04206). Nature of the series: EMSA. The following applies: p65 1 µM, oligo 0.15 µM; EMSA: 5x binding buffer (750 mM KCl, 0.5 mM DTT, 0.5 mM EDTA, 50 mM Tris pH 7.4; 2 µl per reaction, i.e. about 150 mM KCl if 10 µl), 40 min, temperature not stated; recombinant protein; label: none (unlabeled, SYBR Green stain).

“CGACATGATACACTAAGAAAAAATATTCTGCAGACACTGC (double strand) [MUC16 promoter NFκB mutated oligo]”: the binding result is recorded as “binds more weakly”.
